The supplement of paper PMC10849652
The list shows a part of the results.

The chains behind the UniProt entries cited, without tags or fusion partners. Where a name states a change or a piece, a line headed by the entry shows the natural chain unless it says otherwise.
UniProt Q9BV20: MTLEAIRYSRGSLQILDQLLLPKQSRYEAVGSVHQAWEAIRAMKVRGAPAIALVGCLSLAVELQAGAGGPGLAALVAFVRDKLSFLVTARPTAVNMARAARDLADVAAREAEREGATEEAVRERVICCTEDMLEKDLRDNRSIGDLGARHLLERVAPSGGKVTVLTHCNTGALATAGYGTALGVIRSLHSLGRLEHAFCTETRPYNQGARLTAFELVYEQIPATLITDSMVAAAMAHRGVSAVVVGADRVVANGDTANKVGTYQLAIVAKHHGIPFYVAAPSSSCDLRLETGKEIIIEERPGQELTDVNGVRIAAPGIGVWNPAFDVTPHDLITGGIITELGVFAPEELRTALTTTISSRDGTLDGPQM
UniProt Q5TGZ0: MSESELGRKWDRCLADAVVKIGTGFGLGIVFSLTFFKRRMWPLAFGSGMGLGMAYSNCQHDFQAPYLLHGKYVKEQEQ
UniProt P49959: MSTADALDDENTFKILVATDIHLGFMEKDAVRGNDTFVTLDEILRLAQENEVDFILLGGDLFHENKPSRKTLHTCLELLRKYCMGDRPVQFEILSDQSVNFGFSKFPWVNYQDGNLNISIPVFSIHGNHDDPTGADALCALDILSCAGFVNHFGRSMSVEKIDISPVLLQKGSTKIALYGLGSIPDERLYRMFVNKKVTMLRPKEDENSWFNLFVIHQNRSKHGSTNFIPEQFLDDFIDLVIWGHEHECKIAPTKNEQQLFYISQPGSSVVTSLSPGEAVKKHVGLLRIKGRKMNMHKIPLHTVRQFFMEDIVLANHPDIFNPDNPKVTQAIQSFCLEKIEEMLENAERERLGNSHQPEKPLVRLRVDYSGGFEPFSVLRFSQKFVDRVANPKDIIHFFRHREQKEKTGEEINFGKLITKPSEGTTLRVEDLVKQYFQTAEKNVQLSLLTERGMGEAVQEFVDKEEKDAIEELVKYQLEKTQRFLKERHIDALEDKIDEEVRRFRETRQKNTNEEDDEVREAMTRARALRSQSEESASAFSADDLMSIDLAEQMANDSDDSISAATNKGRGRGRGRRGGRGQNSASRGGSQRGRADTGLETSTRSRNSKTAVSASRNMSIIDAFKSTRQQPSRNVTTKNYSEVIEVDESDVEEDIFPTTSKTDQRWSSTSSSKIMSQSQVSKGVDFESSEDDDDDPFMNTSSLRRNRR
UniProt Q9UL63, whole entry, looked up: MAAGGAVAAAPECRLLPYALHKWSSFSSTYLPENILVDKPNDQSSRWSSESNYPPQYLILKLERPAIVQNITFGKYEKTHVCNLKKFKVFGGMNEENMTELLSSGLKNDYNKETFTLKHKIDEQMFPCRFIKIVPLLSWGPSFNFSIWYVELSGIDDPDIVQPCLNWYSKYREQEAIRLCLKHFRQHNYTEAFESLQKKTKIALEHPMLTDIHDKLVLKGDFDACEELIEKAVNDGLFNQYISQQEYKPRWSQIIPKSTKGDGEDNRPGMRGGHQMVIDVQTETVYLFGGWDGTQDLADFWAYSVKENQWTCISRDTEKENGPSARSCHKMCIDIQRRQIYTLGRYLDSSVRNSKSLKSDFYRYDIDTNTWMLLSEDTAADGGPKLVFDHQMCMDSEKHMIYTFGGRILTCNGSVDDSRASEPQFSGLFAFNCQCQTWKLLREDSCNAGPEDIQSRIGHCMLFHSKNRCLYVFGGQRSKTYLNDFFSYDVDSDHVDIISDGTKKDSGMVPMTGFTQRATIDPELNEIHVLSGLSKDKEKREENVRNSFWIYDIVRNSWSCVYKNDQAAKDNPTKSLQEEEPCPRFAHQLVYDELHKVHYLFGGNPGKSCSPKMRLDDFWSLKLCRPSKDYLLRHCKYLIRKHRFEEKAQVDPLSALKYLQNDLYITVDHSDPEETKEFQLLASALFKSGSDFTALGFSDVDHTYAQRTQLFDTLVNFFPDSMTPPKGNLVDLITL
UniProt Q9NV56, whole entry, looked up: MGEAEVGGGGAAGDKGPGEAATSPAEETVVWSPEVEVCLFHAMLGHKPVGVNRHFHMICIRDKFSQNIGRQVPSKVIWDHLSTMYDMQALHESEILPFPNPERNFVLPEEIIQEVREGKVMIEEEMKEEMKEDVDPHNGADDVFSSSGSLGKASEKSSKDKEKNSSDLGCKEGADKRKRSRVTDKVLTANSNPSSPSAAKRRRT
UniProt Q8N4V1: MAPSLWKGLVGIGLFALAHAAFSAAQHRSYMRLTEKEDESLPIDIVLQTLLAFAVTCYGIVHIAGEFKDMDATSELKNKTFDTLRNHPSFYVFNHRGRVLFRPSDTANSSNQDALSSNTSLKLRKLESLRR
UniProt P39210: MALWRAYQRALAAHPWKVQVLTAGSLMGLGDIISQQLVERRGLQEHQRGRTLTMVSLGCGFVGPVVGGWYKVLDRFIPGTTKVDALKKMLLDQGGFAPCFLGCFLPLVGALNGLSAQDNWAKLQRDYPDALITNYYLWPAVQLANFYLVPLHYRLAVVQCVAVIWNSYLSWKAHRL
UniProt Q8TAP9: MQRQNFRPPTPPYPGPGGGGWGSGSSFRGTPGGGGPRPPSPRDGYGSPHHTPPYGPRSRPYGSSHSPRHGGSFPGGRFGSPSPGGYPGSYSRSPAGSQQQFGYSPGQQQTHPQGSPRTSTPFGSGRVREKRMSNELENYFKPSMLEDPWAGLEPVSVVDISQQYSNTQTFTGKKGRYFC
UniProt Q96EY8: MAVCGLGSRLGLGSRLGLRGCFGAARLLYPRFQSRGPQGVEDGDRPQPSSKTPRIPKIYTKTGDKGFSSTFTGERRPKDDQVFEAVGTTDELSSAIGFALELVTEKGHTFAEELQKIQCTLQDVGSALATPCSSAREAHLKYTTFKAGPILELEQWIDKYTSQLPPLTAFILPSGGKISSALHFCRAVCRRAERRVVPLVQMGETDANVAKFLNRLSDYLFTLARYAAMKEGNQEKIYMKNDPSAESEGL
UniProt Q9Y5U8: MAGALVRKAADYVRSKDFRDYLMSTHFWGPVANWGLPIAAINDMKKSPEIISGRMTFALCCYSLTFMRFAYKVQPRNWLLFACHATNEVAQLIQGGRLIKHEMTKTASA
UniProt Q9NZW5: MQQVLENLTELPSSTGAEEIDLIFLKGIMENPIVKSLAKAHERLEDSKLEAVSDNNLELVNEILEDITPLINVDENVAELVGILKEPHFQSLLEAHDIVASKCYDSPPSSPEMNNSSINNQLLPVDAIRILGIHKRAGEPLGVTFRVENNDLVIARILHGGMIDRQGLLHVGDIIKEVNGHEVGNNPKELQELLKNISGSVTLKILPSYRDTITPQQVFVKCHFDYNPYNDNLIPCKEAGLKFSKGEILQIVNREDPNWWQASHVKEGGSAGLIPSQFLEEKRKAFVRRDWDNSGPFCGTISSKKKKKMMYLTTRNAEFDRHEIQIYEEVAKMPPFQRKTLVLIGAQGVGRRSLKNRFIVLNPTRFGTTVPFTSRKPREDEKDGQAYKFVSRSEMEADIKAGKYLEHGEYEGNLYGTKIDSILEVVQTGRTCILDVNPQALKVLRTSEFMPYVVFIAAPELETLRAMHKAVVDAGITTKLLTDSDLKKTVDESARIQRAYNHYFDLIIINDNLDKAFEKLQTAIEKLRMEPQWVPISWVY
UniProt Q13015: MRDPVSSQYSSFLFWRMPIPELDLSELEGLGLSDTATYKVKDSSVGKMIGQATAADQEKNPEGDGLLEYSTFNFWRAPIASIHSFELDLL
UniProt Q7RTP6, whole entry, looked up: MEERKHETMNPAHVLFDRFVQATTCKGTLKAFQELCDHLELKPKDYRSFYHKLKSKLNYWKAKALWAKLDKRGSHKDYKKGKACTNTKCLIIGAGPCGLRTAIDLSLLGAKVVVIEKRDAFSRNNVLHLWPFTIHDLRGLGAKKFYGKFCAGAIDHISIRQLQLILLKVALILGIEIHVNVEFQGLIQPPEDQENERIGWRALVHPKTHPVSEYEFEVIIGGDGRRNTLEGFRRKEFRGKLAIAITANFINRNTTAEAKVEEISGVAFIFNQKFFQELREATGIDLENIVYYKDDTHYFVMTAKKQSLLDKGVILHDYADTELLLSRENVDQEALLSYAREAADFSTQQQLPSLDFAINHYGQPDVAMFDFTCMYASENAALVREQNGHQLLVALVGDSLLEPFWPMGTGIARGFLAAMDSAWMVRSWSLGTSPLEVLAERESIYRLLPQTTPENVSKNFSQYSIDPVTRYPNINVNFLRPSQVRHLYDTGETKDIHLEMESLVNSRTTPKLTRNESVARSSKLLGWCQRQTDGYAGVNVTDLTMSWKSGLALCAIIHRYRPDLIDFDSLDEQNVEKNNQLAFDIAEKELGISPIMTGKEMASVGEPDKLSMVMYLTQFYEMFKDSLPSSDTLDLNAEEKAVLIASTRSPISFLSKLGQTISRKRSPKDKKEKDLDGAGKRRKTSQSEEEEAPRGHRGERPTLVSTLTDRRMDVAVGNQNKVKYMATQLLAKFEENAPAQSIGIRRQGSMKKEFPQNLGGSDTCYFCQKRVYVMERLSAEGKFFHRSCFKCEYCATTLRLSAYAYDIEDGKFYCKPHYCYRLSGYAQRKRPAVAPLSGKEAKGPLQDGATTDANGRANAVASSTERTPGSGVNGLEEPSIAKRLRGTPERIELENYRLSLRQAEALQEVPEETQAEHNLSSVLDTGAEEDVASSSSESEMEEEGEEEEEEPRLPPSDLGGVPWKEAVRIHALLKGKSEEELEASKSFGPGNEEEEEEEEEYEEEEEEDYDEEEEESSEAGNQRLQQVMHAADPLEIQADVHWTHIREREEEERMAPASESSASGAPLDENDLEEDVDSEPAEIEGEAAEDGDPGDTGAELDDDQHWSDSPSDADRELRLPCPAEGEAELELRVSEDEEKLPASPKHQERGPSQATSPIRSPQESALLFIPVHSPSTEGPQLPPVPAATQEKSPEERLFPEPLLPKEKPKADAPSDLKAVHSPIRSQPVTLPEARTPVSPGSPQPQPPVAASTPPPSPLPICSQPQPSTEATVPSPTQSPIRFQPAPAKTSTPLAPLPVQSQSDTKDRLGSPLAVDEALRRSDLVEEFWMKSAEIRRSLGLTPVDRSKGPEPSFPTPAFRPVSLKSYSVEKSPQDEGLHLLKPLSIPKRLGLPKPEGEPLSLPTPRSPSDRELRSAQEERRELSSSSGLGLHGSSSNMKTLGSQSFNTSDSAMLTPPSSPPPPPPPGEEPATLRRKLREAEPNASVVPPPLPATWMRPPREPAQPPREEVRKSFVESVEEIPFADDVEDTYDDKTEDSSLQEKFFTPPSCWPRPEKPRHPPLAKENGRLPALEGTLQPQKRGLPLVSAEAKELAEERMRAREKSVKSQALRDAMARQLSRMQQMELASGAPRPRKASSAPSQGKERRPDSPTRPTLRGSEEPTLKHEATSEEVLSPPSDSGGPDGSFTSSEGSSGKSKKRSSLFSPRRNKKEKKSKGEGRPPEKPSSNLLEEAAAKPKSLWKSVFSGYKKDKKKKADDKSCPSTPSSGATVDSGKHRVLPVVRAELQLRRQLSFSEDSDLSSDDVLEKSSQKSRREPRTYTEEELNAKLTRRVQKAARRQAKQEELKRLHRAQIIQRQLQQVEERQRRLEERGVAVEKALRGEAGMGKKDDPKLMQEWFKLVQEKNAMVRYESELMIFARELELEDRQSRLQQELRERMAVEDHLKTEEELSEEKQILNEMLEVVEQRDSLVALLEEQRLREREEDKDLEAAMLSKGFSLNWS
UniProt Q9NXC5: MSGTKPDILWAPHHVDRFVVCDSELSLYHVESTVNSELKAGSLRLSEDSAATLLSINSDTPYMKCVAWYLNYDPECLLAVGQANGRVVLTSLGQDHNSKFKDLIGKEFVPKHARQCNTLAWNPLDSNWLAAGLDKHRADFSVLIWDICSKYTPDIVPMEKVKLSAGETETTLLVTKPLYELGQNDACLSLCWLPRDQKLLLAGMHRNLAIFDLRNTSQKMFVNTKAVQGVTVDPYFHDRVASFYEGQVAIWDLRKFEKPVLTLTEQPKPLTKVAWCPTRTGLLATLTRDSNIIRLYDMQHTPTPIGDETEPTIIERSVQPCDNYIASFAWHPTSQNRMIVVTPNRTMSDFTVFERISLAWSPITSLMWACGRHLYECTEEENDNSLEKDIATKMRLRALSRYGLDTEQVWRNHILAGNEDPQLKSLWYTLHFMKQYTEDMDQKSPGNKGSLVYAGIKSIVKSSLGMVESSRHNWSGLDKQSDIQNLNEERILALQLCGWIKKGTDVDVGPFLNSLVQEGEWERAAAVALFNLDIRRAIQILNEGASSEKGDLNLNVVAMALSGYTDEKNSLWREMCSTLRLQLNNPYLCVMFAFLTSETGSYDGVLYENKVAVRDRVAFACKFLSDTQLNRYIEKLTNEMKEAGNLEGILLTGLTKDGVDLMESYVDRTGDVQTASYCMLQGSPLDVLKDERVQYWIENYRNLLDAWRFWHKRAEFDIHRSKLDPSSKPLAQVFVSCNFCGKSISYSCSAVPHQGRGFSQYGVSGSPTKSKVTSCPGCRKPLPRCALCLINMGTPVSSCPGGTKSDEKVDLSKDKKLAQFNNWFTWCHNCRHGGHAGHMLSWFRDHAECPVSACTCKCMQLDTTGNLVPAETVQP

Compound: c1cn2cc(-c3ccc4cn[nH]c4c3)nc(Nc3ccc(N4CCOCC4)cc3)c2n1 [entospletinib]
Assay: log2 fold change, soluble protein after heating vs DMSO (PISA); higher = thermal stabilisation; K562 cells, 10 uM, 30 min; active = over 0.2 and 3.5 SD of the protein, either way, in both replicates (recomputed)
Method in brief: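 K562 cells (2×10^6 cells/mL) were treated with 10 μM compound for 30 min, and aliquots were heated for 3 min over 48°C-58°C. Pooled aliquots were extracted in PBS with 0.5% NP-40 at 4°C, and the supernatant after 21,000xg for 90 min was measured by TMTpro 16plex LC-MS/MS with channel sums equalised. Reported thermal stability, relative to control samples and from duplicates, is a log2 fold change.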

Target	log2 fold change
MRI1 (UniProt Q9BV20)	inactive: 0.039
MICOS10 (UniProt Q5TGZ0)	inactive: 0.01
MRE11 isoform 3 (UniProt P49959)	inactive: 0.013
MINDY3 (UniProt Q9H8M7)	inactive: -0.006
MKLN1 (UniProt Q9UL63)	inactive: -0.055
MRGBP (UniProt Q9NV56)	inactive: 0.031
MRPL49 (UniProt Q13405)	inactive: 0.146
MRPL41 (UniProt Q8IXM3)	inactive: 0.084
MRPL44 (UniProt Q9H9J2)	inactive: 0.042
MMGT1 isoform 2 (UniProt Q8N4V1)	inactive: -0.033
MRPL2 (UniProt Q5T653)	inactive: 0.116
MPDU1 (UniProt O75352)	inactive: -0.022
MRPL51 (UniProt Q4U2R6)	inactive: 0.187
MPV17 (UniProt P39210)	inactive: 0.11
MRPL57 (UniProt Q9BQC6)	inactive: 0.107
MRPL3 (UniProt P09001)	inactive: 0.092

As entered above.
Value of MINDY3 (UniProt Q9H8M7) under log2 fold change: inactive: -0.006
Value of MRGBP (UniProt Q9NV56) under log2 fold change: inactive: 0.031

(listing goes on)

Target	log2 fold change
MRPL13 (UniProt Q9BYD1)	inactive: 0.107
MICALL2 (UniProt Q8IY33)	inactive: -0.001
MPLKIP (UniProt Q8TAP9)	inactive: -0.028
MMAB (UniProt Q96EY8)	inactive: 0.042
MPC1 (UniProt Q9Y5U8)	inactive: -0.05
MRPL11 (UniProt Q9Y3B7)	inactive: 0.068
MPP6 (UniProt Q9NZW5)	inactive: 0.018
MKI67 (UniProt P46013)	inactive: 0.006
MRPL16 (UniProt Q9NX20)	inactive: 0.051
MLLT11 (UniProt Q13015)	inactive: -0.087
MRPL35 (UniProt Q9NZE8)	inactive: 0.072
MICAL3 (UniProt Q7RTP6)	inactive: 0.025
MME (UniProt P08473)	inactive: 0.112
MIOS (UniProt Q9NXC5)	inactive: 0.052
MRPL12 (UniProt P52815)	inactive: 0.06
MRPL18 (UniProt Q9H0U6)	inactive: 0.08
